Measured values reported in patent US20250368662A1, “INHIBITORS OF INDOLEAMINE 2,3-DIOXYGENASE 1 (IDO1) AND TRYPTOPHAN 2,3-DIOXYGENASE (TDO) AND METHODS OF USING SAME” (University of South Carolina, priority 2024, published 2025).
At least one structure is not confirmed: it was looked up by name or label, or the drawing left a doubt.

System: EO771 cells
Experiment: Mouse model of breast cancer (EO771 cells in mammary fat pads)
Type: in vivo
Source text: In a mouse model of breast cancer, 8-week-old female C57Bl/6 mice were inoculated with EO771 cells in the 4th pair of mammary fat pads. […] Mice were sacrificed 24 days after cell inoculation.

[1] = flow cytometry of tumors, i.p. 10 mg/kg

O=C(NCCCCC1CN2C(c3ccc4ccccc4c3)=CSC2=N1)Nc1ccccc1 (centres unmarked) [USCYL01]
tumor growth (female C57Bl/6 mice, EO771, i.p. 10 mg/kg every other day for 3 weeks): significantly suppressed
CD206 expression in the infiltrating macrophages in the tumors [1]: reduced
activated CD8+T cell (CD69+CD8+) percentage in tumors [1]: increased
macrophages (MΦ) (CD68+) percentage in tumors [1]: increased
total leukocyte (CD45+) percentage in tumors [1]: increased
